Test results: patent publication US12491217B2, “Compositions and methods for promoting healthy neural development in an unborn baby” (The Regents of the University of California, priority 2019, dated 2025)

Test: Metabolomics of fetal brain at E14.5
Assay type: in vivo, C57Bl/6J mice
[1] = E14.5 fetal brain metabolite level, ANOVA contrast ABX vs SPF
[2] = E14.5 fetal brain metabolite level, ANOVA contrast GF vs ABX
[3] = E14.5 fetal brain metabolite level, ANOVA contrast GF vs SPF
[4] = E14.5 fetal brain metabolite level, ANOVA contrast GF vs Sp
[5] = E14.5 fetal brain metabolite level, ANOVA contrast Sp vs ABX
[6] = E14.5 fetal brain metabolite level, ANOVA contrast Sp vs SPF
[7] = metabolite level in E14.5 fetal brain, ANOVA contrast ABX/SPF
[8] = metabolite level in E14.5 fetal brain, ANOVA contrast GF/ABX
[9] = metabolite level in E14.5 fetal brain, ANOVA contrast GF/SPF
[10] = metabolite level in E14.5 fetal brain, ANOVA contrast GF/Sp
[11] = metabolite level in E14.5 fetal brain, ANOVA contrast Sp/ABX
[12] = metabolite level in E14.5 fetal brain, ANOVA contrast Sp/SPF

SMILES	fold of change ABX/SPF [1]	fold of change GF/ABX [2]	fold of change GF/SPF [3]	fold of change GF/Sp [4]	fold of change Sp/ABX [5]	fold of change Sp/SPF [6]	fold of change ABX/SPF [7]	fold of change GF/ABX [8]	fold of change GF/SPF [9]	fold of change GF/Sp [10]	fold of change Sp/ABX [11]	fold of change Sp/SPF [12]
CCCCCCCCCCCCCC=CC(O)C(COC1OC(CO)C(O)C(O)C1O)NC(=O)CCCCCCCCCCCCCCCCC (stereo not drawn) [compound 2523]	0.86	0.95	0.82	0.93	1.01	0.88	–	–	–	–	–	–
CCCCCCCCCCCCCC=CC(O)C(COC1OC(CO)C(O)C(O)C1O)NC(=O)CCCCCCCCCCCCCCCCCCCCC (stereo not drawn) [compound 2525]	0.88	1.08	0.95	1.09	0.99	0.87	–	–	–	–	–	–
CCCCCCCCCCCCC/C=C/[C@@H](O)[C@H](CO[C@@H]1O[C@H](CO)[C@@H](O[C@@H]2O[C@H](CO)[C@H](O)[C@H](O)[C@H]2O)[C@H](O)[C@H]1O)NC(=O)CCCCCCCCCCCCCCC [compound 2549]	0.90	1.35	1.22	1.25	1.08	0.98	–	–	–	–	–	–
CCCCCCCCCCCCCCCC(=O)NC(COP(=O)([O-])OCC[N+](C)(C)C)C(O)CCCCCCCCCCCCCCC (stereo not drawn) [compound 2561]	0.82	0.99	0.82	1.01	0.98	0.81	–	–	–	–	–	–
CCCCCCCCCCCCC/C=C/[C@@H](O)[C@H](COP(=O)([O-])OCC[N+](C)(C)C)NC(=O)CCCCCCCCCCCCCCC [compound 2565]	0.93	1.06	0.99	1.01	1.05	0.98	–	–	–	–	–	–
CCCCCCCCCCCCC/C=C/[C@@H](O)[C@H](COP(=O)([O-])OCC[N+](C)(C)C)NC(=O)CCCCCCCCCCCCCCCCC [compound 2567]	0.84	1.01	0.84	0.87	1.15	0.96	–	–	–	–	–	–
CCCCCCCCCCCCC/C=C/[C@@H](O)[C@H](COP(=O)([O-])OCC[N+](C)(C)C)NC(=O)CCCCCCCCCCCCCCCCCCCCC [compound 2568]	0.64	0.95	0.60	0.76	1.25	0.80	–	–	–	–	–	–
CCCCCCCCCCCCC/C=C/[C@@H](O)[C@H](COP(=O)([O-])OCC[N+](C)(C)C)NC(=O)CCCCCCCCCCCCCCCCCCCCCC [compound 2569]	0.53	1.33	0.71	1.06	1.26	0.67	–	–	–	–	–	–
CCCCCCCCCCCCC/C=C/[C@@H](O)[C@H](COP(=O)([O-])OCC[N+](C)(C)C)NC(=O)CCCCCCCCCCCCCCCCCCCCCCC [compound 2570]	0.64	1.15	0.73	0.92	1.25	0.80	–	–	–	–	–	–
CCCCCCCCCCCCC/C=C/[C@@H](O)[C@@H](N)CO [compound 2594]	0.84	0.98	0.82	0.94	1.05	0.88	–	–	–	–	–	–
CC(O)(CC(=O)O)CC(=O)O [compound 2610]	0.52	1.11	0.57	0.79	1.40	0.73	–	–	–	–	–	–
CC(C)=CCC[C@@H](C)[C@H]1CC[C@H]2[C@@H]3CC=C4C[C@@H](O)CC[C@]4(C)[C@H]3CC[C@]12C [compound 2624]	0.78	0.94	0.73	0.80	1.17	0.91	–	–	–	–	–	–
CC(C)CCC[C@@H](C)[C@H]1CC[C@H]2[C@@H]3CCC4=CC(=O)CC[C@]4(C)[C@H]3CC[C@]12C [compound 2649]	–	–	–	–	–	–	0.66	1.46	0.97	0.87	1.67	1.10
CC(C)C(C)CCC(C)C1CCC2C3CC=C4CC(O)CCC4(C)C3CCC12C (stereo not drawn) [compound 2652]	–	–	–	–	–	–	0.65	0.87	0.57	0.71	1.22	0.80
CC(C)CCCC(C)C1CCC2C3C(O)C=C4CC(O)CCC4(C)C3CCC12C (stereo not drawn) [compound 2669]	–	–	–	–	–	–	0.11	6.75	0.74	0.62	10.96	1.20
O=c1[nH]cnc2c1ncn2[C@@H]1O[C@H](CO)[C@@H](O)[C@H]1O [compound 3454]	–	–	–	–	–	–	0.90	0.91	0.82	0.91	1.00	0.90
O=c1[nH]cnc2[nH]cnc12 [compound 3455]	–	–	–	–	–	–	0.80	0.89	0.71	0.88	1.01	0.81
O=c1[nH]c(=O)c2[nH]cnc2[nH]1 [compound 3456]	–	–	–	–	–	–	0.45	0.69	0.31	0.56	1.24	0.56
O=c1[nH]c(=O)c2ncn([C@@H]3O[C@H](CO)[C@@H](O)[C@H]3O)c2[nH]1 [compound 3458]	–	–	–	–	–	–	0.67	0.42	0.28	0.74	0.57	0.38
Cn1cnc2c(ncn2[C@@H]2O[C@H](CO)[C@@H](O)[C@H]2O)c1=O [compound 3461]	–	–	–	–	–	–	0.69	1.05	0.73	0.88	1.20	0.83
O=c1[nH]cnc2c1ncn2[C@H]1C[C@H](O)[C@@H](CO)O1 [compound 3462]	–	–	–	–	–	–	0.91	0.87	0.79	0.84	1.03	0.94
O=c1[nH]c(=O)c2[nH]c(=O)[nH]c2[nH]1 [compound 3464]	–	–	–	–	–	–	0.46	1.49	0.69	0.83	1.81	0.84
NC(=O)NC1NC(=O)NC1=O (stereo not drawn) [compound 3466]	–	–	–	–	–	–	0.60	0.95	0.57	0.80	1.19	0.72
Nc1ncnc2c1ncn2[C@@H]1O[C@H](COP(=O)(O)OP(=O)(O)O)[C@@H](O)[C@H]1O [compound 3471]	–	–	–	–	–	–	0.77	1.40	1.07	1.04	1.35	1.03
